Data on 8 molecules can be found in article PMC7294906.

Sequences of proteins named here, by UniProt entry; tags and fusion partners are left off.
UniProt P03372: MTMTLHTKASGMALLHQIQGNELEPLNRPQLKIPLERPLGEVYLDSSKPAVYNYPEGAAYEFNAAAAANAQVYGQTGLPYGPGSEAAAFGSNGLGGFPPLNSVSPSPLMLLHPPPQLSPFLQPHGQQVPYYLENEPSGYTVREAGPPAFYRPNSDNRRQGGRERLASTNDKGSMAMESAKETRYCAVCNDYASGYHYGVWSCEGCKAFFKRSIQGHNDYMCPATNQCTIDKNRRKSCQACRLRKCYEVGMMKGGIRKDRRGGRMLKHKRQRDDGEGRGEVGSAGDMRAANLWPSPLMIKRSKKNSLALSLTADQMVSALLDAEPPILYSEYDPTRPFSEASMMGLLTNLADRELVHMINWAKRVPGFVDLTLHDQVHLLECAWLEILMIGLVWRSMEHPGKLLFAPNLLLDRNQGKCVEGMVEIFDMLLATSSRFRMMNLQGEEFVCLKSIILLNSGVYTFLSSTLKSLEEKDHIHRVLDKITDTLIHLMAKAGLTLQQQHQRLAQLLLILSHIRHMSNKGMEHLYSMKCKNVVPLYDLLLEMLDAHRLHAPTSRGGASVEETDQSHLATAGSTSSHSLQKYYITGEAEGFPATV
UniProt P10244: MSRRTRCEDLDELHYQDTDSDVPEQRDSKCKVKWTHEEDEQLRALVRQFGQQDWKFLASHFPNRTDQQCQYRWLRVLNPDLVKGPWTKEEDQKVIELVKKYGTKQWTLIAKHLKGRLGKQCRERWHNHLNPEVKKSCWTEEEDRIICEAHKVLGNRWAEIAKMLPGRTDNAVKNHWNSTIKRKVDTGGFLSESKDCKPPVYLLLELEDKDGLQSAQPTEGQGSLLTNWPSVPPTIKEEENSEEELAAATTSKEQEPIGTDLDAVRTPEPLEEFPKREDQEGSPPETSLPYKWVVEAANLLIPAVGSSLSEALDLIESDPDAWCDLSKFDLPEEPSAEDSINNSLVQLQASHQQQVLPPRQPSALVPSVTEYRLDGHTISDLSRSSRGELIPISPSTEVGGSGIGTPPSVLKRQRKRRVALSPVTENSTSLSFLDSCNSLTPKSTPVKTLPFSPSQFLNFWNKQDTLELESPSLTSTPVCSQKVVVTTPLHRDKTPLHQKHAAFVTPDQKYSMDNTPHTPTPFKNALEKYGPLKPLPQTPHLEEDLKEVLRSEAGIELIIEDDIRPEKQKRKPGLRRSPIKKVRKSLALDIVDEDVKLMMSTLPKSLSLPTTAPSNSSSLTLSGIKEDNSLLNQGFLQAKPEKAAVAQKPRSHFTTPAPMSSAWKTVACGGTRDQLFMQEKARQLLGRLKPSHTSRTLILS
UniProt Q14686: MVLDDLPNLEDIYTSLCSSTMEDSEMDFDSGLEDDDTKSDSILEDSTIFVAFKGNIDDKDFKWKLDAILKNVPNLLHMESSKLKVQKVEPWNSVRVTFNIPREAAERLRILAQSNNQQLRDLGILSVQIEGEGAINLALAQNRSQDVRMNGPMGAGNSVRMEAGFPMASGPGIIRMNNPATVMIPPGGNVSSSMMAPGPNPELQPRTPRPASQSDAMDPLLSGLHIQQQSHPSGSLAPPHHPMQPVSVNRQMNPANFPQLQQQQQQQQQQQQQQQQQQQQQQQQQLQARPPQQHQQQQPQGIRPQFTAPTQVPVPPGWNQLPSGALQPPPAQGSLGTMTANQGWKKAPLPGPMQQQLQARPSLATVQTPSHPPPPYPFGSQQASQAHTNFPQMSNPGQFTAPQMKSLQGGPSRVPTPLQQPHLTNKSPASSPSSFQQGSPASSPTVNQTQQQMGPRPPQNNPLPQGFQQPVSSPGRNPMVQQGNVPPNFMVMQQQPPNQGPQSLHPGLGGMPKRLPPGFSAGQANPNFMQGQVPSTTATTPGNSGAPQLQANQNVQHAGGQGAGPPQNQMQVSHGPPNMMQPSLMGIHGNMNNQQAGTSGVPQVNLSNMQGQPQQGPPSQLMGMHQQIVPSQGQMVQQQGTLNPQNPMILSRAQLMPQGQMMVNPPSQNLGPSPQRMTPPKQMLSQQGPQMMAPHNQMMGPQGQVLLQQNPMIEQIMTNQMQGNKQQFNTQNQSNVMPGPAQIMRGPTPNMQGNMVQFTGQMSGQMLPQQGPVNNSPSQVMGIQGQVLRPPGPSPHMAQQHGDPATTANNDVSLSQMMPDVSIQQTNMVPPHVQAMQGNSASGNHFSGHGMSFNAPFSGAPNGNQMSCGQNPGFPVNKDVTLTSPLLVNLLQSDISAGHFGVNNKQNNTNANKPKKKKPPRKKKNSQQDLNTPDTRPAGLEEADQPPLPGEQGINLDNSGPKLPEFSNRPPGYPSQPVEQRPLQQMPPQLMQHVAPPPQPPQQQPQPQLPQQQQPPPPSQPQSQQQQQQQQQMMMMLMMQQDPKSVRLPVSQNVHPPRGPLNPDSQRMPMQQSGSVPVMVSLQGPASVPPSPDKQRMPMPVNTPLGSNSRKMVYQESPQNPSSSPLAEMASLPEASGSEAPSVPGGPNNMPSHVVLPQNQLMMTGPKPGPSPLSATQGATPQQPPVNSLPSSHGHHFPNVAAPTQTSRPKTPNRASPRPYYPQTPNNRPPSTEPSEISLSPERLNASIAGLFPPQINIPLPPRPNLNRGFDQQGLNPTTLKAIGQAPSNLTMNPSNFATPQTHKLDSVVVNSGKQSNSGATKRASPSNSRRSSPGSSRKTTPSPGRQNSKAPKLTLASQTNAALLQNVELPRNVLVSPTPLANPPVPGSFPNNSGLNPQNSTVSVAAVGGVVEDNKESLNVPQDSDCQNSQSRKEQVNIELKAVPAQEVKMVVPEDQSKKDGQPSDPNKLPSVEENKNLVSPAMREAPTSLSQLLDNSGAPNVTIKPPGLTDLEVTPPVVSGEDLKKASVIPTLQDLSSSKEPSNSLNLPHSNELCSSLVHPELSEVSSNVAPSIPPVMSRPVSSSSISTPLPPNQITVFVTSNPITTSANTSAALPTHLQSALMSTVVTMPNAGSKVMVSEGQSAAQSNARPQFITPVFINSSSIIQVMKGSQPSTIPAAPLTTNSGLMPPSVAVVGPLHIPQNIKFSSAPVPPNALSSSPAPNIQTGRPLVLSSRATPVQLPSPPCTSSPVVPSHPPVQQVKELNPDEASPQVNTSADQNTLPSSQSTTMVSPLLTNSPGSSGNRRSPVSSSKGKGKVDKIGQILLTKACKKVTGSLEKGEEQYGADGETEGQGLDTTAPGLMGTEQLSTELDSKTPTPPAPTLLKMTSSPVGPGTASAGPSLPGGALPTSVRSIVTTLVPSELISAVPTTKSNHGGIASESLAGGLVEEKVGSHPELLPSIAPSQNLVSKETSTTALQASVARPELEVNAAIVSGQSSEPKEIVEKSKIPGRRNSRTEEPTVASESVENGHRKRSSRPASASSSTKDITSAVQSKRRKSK
UniProt Q7Z333: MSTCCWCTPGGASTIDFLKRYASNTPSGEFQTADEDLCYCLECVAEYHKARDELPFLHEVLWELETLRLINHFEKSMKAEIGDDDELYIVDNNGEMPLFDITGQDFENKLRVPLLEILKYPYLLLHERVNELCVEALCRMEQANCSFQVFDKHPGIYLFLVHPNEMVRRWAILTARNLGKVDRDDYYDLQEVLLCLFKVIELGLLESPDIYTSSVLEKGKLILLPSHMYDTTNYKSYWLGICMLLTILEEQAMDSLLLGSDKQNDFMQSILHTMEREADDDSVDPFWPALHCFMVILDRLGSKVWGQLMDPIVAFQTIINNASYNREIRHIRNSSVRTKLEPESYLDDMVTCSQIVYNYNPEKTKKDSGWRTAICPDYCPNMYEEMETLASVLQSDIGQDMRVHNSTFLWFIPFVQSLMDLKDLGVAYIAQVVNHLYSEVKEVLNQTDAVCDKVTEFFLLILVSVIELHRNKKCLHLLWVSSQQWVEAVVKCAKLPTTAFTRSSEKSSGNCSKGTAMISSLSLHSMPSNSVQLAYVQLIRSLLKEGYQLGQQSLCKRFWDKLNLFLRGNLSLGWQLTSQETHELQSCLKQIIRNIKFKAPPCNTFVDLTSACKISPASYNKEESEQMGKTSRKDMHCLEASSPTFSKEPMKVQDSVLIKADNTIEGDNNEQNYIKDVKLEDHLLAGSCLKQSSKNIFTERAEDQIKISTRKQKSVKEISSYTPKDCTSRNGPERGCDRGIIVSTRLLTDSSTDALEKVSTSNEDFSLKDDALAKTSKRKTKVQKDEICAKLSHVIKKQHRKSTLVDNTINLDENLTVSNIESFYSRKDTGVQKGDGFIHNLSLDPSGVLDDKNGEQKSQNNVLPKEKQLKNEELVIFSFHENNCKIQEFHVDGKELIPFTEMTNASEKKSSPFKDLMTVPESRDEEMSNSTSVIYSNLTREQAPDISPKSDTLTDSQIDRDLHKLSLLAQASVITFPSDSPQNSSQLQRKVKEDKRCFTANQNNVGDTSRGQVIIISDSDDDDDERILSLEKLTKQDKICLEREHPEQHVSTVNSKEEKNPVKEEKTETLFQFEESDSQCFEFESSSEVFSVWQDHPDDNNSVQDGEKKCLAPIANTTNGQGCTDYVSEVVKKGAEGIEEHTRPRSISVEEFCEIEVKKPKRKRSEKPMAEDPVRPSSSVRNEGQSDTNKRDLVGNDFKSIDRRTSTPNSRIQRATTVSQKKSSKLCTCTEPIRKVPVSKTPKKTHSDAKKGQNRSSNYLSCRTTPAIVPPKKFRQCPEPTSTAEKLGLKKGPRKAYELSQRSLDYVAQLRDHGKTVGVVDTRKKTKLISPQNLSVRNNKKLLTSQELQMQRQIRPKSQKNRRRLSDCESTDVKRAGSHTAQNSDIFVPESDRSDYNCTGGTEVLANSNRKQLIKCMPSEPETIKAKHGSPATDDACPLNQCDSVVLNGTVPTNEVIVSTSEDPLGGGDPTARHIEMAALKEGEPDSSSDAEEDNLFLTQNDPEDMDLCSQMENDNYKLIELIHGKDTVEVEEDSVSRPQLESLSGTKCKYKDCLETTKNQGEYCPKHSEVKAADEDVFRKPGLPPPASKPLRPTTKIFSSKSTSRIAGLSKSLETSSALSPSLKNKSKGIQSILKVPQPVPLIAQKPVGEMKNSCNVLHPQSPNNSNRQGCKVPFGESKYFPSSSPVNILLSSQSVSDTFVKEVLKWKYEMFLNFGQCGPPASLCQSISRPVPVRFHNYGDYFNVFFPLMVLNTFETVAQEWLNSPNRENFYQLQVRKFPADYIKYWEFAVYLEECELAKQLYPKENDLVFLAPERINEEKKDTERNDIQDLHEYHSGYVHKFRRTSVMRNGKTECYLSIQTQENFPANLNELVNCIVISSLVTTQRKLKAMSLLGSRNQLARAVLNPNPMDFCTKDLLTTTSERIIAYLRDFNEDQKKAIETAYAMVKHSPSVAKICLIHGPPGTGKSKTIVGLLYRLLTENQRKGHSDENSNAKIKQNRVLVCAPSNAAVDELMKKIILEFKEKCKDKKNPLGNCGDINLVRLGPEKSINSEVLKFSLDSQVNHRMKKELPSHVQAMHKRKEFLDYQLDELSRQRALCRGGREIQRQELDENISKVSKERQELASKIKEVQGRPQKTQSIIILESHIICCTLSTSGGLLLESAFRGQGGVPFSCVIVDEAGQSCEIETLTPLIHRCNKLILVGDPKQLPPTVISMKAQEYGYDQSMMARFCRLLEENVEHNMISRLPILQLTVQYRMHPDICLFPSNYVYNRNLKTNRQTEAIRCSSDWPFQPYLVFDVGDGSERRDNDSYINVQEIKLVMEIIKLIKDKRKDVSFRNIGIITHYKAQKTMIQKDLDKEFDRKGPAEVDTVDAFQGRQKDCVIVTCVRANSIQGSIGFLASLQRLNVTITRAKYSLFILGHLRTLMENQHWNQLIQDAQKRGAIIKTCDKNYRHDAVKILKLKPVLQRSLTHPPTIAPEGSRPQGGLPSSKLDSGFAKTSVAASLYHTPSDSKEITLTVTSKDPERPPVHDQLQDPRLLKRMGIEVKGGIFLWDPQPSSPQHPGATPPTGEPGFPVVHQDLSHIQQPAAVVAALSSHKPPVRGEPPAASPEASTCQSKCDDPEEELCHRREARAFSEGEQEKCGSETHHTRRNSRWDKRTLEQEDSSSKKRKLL

Test [1] addresses recombinant ERα protein (UniProt P03372). The experiment in a line: affinity purification with mass spectrometry; ERE DNA pulldown: biotinylated 921 bp 4xERE DNA on Dynabeads M280 streptavidin, 0.5 ug recombinant ERα + 1 mg MCF-7:5C nuclear extract, with 1 uM Z2OHTPE, 1.5 h at 4°C, three washes; label-free LC-MS, enrichment against vehicle (ethanol), duplicates; only the target purified.

Test [2] has the same target. The experiment in a line: affinity purification with mass spectrometry; ERE DNA pulldown: biotinylated 921 bp 4xERE DNA on Dynabeads M280 streptavidin, 0.5 ug recombinant ERα + 1 mg MCF-7:5C nuclear extract, with 1 uM endoxifen, 1.5 h at 4°C, three washes; label-free LC-MS, enrichment against vehicle (ethanol), duplicates; only the target purified.
Test [3] shares this target. In words: affinity purification with mass spectrometry; ERE DNA pulldown: biotinylated 921 bp 4xERE DNA on Dynabeads M280 streptavidin, 0.5 ug recombinant ERα + 1 mg MCF-7:5C nuclear extract, with 1 uM BPTPE, 1.5 h at 4°C, three washes; label-free LC-MS, enrichment against vehicle (ethanol), duplicates; only the target purified.
The target is the same in test [4]. The experiment in a line: affinity purification with mass spectrometry; ERE DNA pulldown: biotinylated 921 bp 4xERE DNA on Dynabeads M280 streptavidin, 0.5 ug recombinant ERα + 1 mg MCF-7:5C nuclear extract, with 1 uM 3OHTPE, 1.5 h at 4°C, three washes; label-free LC-MS, enrichment against vehicle (ethanol), duplicates; only the target purified.
The target is the same in test [5]. The experiment in a line: affinity purification with mass spectrometry; ERE DNA pulldown: biotinylated 921 bp 4xERE DNA on Dynabeads M280 streptavidin, 0.5 ug recombinant ERα + 1 mg MCF-7:5C nuclear extract, with 100 nM E2, 1.5 h at 4°C, three washes; label-free LC-MS, enrichment against vehicle (ethanol), duplicates; only the target purified.

No constants are given. Whether binding was seen depends on the method and setting. In cells and extracts the contact can be indirect. These calls come from enrichment with a bait or labelling near it, and not all partners need be listed. For part of these data: A no says only that the protein was not detected with the bait.

Turning to GREB1L (from UniProt Q9C091 1-1923), in test [1], the binding entry is given as “binds”.
As to MYBL2 (from UniProt P10244 1-700), the binding result in test [2] was “binds”; in test [1], “no binding (only with 1 uM Z2OHTPE)”; in test [3], “binds”; in test [4] it was “no binding (only with 1 uM 3OHTPE)”.
Regarding NCOA6 (from UniProt Q14686 1-2063), the results for the binding entry in test [2], in test [1] and in test [5] were “no binding (only with 1 uM endoxifen)”, “binds” and “binds”, respectively.
On to SETX (from UniProt Q7Z333 1-2677), for which the binding result in test [2] is “binds”; in test [1], “binds”; in test [3], “no binding (only with 1 uM BPTPE)”; in test [4] it was “no binding (only with 1 uM 3OHTPE)”.
Regarding TBC1D9B (from UniProt Q66K14 1-1250), the binding result in test [1] is on record as “binds”.
In the case of TRIM28 (from UniProt Q13263 1-835), the binding result in test [2] is “binds”; in test [1], “binds”; in test [3], “no binding (only with 1 uM BPTPE)”; in test [4] it was “binds”.
As to “p300 (EP300) (from UniProt Q09472 1-2414)”, the binding result in test [2] is recorded as “no binding (only with 1 uM endoxifen)”; in test [1], “binds”; in test [5], “binds”.

B1: PHC3 (protein, UniProt Q8NDX5 1-983)
chain: MDTEPNPGTSSVSTTTSSTTTTTITTSSSRMQQPQISVYSGSDRHAVQVIQQALHRPPSSAAQYLQQMYAAQQQHLMLHTAALQQQHLSSSQLQSLAAVQASLSSGRPSTSPTGSVTQQSSMSQTSINLSTSPTPAQLISRSQASSSTSGSITQQTMLLGSTSPTLTASQAQMYLRAQMLIFTPATTVAAVQSDIPVVSSSSSSSCQSAATQVQNLTLRSQKLGVLSSSQNGPPKSTSQTQSLTICHNKTTVTSSKISQRDPSPESNKKGESPSLESRSTAVTRTSSIHQLIAPASYSPIQPHSLIKHQQIPLHSPPSKVSHHQLILQQQQQQIQPITLQNSTQDPPPSQHCIPLQNHGLPPAPSNAQSQHCSPIQSHPSPLTVSPNQSQSAQQSVVVSPPPPHSPSQSPTIIIHPQALIQPHPLVSSALQPGPNLQQSTANQVQATAQLNLPSHLPLPASPVVHIGPVQQSALVSPGQQIVSPSHQQYSSLQSSPIPIASPPQMSTSPPAQIPPLPLQSMQSLQVQPEILSQGQVLVQNALVSEEELPAAEALVQLPFQTLPPPQTVAVNLQVQPPAPVDPPVVYQVEDVCEEEMPEESDECVRMDRTPPPPTLSPAAITVGRGEDLTSEHPLLEQVELPAVASVSASVIKSPSDPSHVSVPPPPLLLPAATTRSNSTSMHSSIPSIENKPPQAIVKPQILTHVIEGFVIQEGLEPFPVSRSSLLIEQPVKKRPLLDNQVINSVCVQPELQNNTKHADNSSDTEMEDMIAEETLEEMDSELLKCEFCGKMGYANEFLRSKRFCTMSCAKRYNVSCSKKFALSRWNRKPDNQSLGHRGRRPSGPDGAAREHILRQLPITYPSAEEDLASHEDSVPSAMTTRLRRQSERERERELRDVRIRKMPENSDLLPVAQTEPSIWTVDDVWAFIHSLPGCQDIADEFRAQEIDGQALLLLKEDHLMSAMNIKLGPALKICARINSLKES
On to B1, for which the binding entry is “binds” in test [2], “binds” in test [1], “no binding (only with 1 uM BPTPE)” in test [3] and “binds” in test [4].
